According to publication PMC7326902:
These are yes or no findings as the source states them, for the method shown. Binding seen in cells or lysates may run through a third protein. Some binding calls cover weakened binding; strength is not graded here. For part of these data: Sequences can lack the tags named with a protein. Each block holds one molecule with its values, some of them ahead of it.

How the values were obtained:
[1] = target: T1, GST–AnxA6 fusion protein (UniProt P48037); assay: pull-down; glutathione Sepharose 4B beads coated with purified GST–AnxA6 (40–70 µg), incubated with post-nuclear supernatants of cell lysates (400–700 µg; CHO lines or transfected COS-1) for 2 h at 4 °C in 50 mM Tris, 150 mM NaCl, 1% Triton X-100, 0.1 mM CaCl2, pH 7.3; western blotting; only the target purified
T1 sequence: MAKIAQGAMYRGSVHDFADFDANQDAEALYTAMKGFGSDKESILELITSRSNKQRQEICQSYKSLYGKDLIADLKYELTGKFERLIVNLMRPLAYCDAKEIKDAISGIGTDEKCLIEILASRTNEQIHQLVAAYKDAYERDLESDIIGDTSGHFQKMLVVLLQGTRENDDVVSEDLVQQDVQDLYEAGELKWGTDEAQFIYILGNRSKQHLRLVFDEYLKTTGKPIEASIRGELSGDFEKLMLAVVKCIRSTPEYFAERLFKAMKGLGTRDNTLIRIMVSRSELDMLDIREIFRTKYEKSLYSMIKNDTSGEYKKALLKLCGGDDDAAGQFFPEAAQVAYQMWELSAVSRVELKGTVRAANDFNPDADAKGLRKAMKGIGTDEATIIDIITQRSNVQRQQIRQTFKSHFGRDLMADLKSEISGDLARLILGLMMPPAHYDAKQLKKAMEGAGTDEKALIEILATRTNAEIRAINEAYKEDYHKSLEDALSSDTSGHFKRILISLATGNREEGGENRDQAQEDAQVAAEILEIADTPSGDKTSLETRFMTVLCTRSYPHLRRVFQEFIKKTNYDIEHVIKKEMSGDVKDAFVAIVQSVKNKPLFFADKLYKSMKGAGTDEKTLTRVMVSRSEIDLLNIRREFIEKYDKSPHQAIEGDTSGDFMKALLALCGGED

[2] = target: T2, AnxA6 overexpressed in CHO-A6 cells (UniProt P48037); assay: co-IP; lysates of CHO-WT, CHO-A6, CHO M12 and CHO 2-2 cells (50 mM Tris, 150 mM NaCl, 1% Triton X-100, 0.1 mM CaCl2, pH 7.4); anti-AnxA6, anti-TBC1D15 or control antibody, Protein A-agarose, 4 °C; western blotting
T2 sequence: T1 sequence

[3] = target: T3, AnxA6, endogenous in mouse liver (mouse (endogenous in mouse liver)) (UniProt P14824); assay: co-IP; mouse liver homogenates (10 mM Tris, 150 mM NaCl, 5 mM EDTA, pH 7.5), pre-cleaned with Protein A-agarose; anti-AnxA6, anti-TBC1D15 or control antibody; western blotting
T3 sequence: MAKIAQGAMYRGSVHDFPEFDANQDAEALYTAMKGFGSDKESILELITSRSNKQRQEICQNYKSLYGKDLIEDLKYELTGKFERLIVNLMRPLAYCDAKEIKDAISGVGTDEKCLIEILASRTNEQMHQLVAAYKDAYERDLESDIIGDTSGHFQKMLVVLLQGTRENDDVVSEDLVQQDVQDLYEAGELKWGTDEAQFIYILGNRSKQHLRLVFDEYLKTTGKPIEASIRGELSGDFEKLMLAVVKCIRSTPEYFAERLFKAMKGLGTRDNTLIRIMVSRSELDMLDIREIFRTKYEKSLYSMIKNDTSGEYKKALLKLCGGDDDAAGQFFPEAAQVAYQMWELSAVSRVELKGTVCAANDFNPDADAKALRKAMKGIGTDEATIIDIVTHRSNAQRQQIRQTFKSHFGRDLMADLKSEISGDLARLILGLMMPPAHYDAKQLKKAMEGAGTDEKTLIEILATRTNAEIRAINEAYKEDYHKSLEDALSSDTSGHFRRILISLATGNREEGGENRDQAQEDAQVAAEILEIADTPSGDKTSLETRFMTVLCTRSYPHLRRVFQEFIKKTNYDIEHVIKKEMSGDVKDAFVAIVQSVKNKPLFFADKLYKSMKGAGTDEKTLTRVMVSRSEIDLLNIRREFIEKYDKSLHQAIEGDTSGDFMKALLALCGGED

[4] = target: T4, TBC1D15, endogenous in mouse liver (mouse (endogenous in mouse liver)) (UniProt Q9CXF4); assay: as above
T4 sequence: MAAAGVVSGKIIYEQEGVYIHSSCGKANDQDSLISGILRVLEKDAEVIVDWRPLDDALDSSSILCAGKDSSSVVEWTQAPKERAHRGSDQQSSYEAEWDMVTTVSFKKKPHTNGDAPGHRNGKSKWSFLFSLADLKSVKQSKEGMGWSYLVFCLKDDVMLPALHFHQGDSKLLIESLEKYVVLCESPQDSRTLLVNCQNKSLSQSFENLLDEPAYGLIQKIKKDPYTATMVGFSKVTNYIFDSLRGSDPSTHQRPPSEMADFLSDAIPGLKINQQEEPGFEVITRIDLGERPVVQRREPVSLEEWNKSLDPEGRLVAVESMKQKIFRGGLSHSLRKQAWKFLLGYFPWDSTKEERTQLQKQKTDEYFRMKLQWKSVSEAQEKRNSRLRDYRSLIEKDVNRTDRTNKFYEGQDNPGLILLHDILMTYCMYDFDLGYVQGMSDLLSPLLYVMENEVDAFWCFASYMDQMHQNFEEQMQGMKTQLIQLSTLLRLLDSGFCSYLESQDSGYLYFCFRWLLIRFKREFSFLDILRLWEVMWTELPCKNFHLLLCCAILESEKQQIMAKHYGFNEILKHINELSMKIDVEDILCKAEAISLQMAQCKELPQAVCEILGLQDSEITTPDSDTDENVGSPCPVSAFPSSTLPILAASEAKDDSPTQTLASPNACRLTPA

[5] = target: TBC1D15, endogenous in CHO cells (Chinese hamster (endogenous in CHO)); assay: co-IP; lysates of CHO-WT, CHO-A6, CHO M12 and CHO 2-2 cells (50 mM Tris, 150 mM NaCl, 1% Triton X-100, 0.1 mM CaCl2, pH 7.4); anti-AnxA6, anti-TBC1D15 or control antibody, Protein A-agarose, 4 °C; western blotting

Molecule: TBC1D15, endogenous in CHO cells (from UniProt A0A8C2MJC3 1-673)
binding [1]: binds
binding [2]: binds

B3: AnxA6, endogenous in mouse liver (protein, UniProt P14824 1-673)
chain: T3 sequence
binding [4]: binds

B4: AnxA6 overexpressed in CHO-A6 cells (protein, UniProt P48037 1-673)
chain: T1 sequence
binding [5]: binds

Now from value to molecule:

binding [3]: binds
B1: TBC1D15, endogenous in mouse liver (protein, UniProt Q9CXF4 1-671)
chain: T4 sequence

binding [1]: binds
B2: YFP–TBC1D15(1–200) deletion mutant (domain or fragment, UniProt Q8TC07-2 1-200)
chain: MAAAGVVSGKIIYEQEGVYIHSSCGKTNDQDGLISGILRVLEKDAEVIVDWRPLDDALDSSSILYARKDSSSVVEWTQAPKERGHRGSEHLNSYEAEWDMVNTVSFKRKPHTNGDAPSHRNGKSKWSFLFSLTDLKSIKQNKEGMGWSYLVFCLKDDVVLPALHFHQGDSKLLIESLEKYVVLCESPQDKRTLLVNCQNK
